Source: patent US5874086A (Syntex (U.S.A,), Inc., priority 1994, dated 1999)
Some peptides are written in HELM: one residue between dots, names in brackets for other building blocks, links after the first $.

Assay: general procedure: Boc solid-phase peptide synthesis; 4-methylbenzhydrylamine resin; DCC/HOBt
[1] = whole synthesis, scale 0.5 mmol

AVSEHQLLHDKGKSIQDLRRRELLEKLLEKLHTXZ-NH2
final purity (method not given) (late stage modification step): >98%

PEPTIDE1{A.V.S.E.H.Q.L.L.H.D.K.G.K.S.I.Q.D.L.R.R.R.E.L.L.E.K.L.L.E.K.L.H.T.A.[am]}$$$$V2.0
crude mass [1]: 900 mgs
final purity (method not given) [1]: >98%
isolated mass [1]: 130 mgs
